# The other results are listed elsewhere or left out.
# Sequences of proteins named here, by UniProt entry; tags and fusion partners are left off. A change or cut given only in a name is not applied to a line headed by its entry.
# UniProt Q9UGY1: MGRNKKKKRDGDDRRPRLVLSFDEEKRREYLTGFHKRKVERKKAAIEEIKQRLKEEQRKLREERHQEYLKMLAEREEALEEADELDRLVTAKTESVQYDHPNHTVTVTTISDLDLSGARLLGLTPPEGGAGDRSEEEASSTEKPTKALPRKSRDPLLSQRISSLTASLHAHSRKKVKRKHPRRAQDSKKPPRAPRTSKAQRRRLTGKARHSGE
# UniProt P53384: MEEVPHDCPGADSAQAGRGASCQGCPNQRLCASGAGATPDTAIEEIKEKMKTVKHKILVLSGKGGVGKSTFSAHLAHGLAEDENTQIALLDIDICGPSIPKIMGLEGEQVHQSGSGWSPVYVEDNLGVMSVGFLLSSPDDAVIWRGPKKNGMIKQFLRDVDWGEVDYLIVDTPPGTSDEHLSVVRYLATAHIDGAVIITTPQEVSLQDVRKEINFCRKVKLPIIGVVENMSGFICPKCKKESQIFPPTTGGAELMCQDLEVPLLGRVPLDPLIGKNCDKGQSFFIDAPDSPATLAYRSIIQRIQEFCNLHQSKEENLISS
# UniProt Q9BQG2: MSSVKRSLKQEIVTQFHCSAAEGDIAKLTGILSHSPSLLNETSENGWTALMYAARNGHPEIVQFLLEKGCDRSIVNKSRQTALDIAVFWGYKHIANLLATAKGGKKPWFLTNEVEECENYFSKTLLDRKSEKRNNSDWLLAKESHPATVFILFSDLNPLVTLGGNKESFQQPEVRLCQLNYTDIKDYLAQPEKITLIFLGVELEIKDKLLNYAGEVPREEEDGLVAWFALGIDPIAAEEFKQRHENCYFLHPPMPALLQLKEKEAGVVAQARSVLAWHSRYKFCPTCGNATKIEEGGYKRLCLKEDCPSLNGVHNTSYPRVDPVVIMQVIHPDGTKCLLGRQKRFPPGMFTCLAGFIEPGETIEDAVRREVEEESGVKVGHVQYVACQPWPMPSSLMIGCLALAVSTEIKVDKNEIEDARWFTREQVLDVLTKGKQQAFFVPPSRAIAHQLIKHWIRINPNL
# UniProt P49902: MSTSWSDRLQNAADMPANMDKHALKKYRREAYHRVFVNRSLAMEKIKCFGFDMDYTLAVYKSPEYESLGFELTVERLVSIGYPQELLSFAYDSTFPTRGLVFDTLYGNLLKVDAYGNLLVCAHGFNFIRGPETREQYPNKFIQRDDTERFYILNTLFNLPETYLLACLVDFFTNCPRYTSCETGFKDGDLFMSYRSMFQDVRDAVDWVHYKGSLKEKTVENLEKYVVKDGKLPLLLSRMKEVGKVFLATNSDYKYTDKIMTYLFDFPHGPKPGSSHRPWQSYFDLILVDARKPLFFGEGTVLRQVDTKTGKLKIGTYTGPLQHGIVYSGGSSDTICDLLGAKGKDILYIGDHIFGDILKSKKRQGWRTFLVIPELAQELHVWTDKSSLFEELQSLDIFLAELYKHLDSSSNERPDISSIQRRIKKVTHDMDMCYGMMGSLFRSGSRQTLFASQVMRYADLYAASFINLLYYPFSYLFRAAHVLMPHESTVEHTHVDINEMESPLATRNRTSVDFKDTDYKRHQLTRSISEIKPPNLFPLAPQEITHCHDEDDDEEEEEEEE
# UniProt Q9H0G5: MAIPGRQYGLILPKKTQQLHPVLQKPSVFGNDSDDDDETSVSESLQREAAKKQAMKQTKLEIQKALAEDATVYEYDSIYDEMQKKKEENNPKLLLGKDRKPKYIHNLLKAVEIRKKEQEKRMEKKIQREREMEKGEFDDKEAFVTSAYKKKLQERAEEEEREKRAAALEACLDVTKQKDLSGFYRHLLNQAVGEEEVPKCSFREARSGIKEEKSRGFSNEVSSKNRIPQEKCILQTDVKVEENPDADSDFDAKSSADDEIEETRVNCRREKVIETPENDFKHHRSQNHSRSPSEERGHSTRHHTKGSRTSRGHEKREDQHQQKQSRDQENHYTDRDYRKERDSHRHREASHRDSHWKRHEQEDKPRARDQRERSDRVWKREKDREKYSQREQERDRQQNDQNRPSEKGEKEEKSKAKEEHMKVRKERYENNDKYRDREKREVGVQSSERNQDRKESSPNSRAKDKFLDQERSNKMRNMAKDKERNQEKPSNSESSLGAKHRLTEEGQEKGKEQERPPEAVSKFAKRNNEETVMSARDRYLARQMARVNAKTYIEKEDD
# UniProt Q9NZJ9: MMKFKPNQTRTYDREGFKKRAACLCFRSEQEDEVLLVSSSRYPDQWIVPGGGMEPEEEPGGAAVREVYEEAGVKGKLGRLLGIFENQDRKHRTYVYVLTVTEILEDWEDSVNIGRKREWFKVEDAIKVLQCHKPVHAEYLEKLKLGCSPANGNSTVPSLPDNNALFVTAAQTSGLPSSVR
# UniProt Q9UNZ2: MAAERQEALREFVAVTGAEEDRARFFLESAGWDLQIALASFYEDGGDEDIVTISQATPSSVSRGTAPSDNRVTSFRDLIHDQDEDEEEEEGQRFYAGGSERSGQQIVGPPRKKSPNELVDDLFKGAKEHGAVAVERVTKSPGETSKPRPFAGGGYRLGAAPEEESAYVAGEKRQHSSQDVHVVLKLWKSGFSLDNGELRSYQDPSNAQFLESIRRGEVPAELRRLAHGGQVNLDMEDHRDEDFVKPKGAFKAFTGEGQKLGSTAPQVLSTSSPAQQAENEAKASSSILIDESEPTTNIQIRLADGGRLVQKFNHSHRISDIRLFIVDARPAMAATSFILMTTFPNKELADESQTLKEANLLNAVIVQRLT
# UniProt Q8WTT2: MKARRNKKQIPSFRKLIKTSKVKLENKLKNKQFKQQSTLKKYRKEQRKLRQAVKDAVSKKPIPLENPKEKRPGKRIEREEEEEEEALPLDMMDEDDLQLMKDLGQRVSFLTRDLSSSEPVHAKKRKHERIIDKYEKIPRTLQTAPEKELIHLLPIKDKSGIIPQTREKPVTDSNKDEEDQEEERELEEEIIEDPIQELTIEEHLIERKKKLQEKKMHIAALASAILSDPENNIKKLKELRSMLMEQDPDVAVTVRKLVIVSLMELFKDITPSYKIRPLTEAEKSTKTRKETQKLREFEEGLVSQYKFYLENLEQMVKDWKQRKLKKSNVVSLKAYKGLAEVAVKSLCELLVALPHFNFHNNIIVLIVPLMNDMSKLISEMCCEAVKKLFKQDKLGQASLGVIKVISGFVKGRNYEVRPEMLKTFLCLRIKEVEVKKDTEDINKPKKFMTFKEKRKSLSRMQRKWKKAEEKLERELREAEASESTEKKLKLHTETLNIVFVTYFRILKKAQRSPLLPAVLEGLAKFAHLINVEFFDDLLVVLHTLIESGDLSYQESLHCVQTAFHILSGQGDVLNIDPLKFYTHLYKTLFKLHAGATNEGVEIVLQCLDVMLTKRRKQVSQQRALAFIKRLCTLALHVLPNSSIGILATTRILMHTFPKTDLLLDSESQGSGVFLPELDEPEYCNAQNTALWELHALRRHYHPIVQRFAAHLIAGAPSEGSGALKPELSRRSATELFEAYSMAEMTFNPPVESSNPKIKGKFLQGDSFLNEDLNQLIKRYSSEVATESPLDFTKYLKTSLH
# UniProt Q96RS6: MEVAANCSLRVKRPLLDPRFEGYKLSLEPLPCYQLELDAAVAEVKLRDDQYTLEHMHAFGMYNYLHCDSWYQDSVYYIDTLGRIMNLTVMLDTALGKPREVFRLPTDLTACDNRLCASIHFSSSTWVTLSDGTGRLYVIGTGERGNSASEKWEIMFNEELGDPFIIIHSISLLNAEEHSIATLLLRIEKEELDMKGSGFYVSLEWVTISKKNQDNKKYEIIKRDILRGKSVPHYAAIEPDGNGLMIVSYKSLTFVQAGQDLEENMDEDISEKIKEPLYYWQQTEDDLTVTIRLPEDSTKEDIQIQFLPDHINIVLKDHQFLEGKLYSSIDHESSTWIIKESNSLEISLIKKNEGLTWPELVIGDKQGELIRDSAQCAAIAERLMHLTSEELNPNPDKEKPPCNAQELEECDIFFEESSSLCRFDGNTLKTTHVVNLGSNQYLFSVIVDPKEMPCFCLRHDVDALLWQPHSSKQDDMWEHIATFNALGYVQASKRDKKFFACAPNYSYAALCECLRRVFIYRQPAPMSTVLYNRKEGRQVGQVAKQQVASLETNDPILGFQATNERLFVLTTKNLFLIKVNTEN
# UniProt Q5JPE7: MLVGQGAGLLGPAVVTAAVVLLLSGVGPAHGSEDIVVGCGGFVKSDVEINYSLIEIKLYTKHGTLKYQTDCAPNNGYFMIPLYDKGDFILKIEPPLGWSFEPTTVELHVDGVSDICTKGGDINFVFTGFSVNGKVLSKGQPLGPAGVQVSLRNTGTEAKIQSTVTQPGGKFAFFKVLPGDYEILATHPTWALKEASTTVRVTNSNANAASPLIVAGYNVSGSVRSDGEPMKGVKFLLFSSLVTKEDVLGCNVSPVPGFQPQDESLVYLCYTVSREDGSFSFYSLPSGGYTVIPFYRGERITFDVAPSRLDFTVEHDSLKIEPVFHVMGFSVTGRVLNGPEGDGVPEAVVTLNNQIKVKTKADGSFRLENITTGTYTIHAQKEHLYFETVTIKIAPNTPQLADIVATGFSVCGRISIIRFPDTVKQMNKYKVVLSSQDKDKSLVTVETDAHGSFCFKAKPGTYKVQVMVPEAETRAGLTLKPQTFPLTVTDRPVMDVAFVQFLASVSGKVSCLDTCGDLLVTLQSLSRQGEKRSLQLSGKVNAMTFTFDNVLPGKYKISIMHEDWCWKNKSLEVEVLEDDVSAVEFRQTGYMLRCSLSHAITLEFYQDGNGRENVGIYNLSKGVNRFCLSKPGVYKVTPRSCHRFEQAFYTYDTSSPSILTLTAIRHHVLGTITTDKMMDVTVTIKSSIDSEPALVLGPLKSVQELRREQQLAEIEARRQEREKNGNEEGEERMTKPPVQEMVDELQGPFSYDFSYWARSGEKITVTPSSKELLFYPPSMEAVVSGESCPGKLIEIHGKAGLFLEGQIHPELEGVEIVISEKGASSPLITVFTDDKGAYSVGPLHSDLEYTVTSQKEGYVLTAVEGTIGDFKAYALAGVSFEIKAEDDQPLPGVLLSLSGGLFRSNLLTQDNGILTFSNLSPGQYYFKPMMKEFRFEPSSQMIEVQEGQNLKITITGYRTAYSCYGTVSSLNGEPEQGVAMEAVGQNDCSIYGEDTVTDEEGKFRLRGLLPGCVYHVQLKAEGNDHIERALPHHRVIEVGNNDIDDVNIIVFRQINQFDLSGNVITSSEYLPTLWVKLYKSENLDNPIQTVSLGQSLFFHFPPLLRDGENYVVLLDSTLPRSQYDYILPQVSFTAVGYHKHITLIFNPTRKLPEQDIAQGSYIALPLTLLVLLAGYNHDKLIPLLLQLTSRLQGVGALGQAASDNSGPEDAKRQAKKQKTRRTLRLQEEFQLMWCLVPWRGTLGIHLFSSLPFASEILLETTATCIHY
# UniProt Q8NC60: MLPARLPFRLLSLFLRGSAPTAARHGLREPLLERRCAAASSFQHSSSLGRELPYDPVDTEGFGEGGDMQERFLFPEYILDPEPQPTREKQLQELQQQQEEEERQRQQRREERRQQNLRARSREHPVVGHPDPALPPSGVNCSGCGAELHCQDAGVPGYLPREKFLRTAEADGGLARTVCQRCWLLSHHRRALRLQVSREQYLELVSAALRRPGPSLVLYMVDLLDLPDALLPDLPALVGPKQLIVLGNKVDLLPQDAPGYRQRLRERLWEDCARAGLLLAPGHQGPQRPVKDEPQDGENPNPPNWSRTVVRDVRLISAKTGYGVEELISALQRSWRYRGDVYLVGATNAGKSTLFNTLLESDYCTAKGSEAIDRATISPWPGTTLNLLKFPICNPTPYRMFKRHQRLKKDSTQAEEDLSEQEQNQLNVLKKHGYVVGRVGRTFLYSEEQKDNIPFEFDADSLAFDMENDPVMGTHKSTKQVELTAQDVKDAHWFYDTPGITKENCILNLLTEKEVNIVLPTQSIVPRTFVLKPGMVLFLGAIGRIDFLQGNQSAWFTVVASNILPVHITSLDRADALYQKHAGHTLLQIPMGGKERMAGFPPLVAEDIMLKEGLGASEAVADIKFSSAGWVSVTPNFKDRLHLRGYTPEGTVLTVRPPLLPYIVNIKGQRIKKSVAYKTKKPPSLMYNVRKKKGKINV
# UniProt Q9Y314: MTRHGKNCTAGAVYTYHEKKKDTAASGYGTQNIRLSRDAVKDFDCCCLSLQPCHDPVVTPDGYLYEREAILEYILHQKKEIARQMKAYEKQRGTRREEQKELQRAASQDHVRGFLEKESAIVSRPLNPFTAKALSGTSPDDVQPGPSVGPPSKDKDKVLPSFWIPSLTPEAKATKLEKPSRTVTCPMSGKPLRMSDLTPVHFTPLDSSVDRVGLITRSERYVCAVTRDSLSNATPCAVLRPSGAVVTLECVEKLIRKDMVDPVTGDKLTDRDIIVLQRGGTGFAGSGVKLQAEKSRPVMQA
# Compound: Cc1ccc(-n2nc(C(C)(C)C)cc2NC(=O)Nc2ccc(OCCN3CCOCC3)c3ccccc23)cc1 [doramapimod]
# Assay: log2 fold change, soluble protein after heating vs DMSO (PISA); higher = thermal stabilisation; K562 lysate, 10 uM; active = over 0.2 and 3.5 SD of the protein, either way, in both replicates (recomputed)
# In short: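 Following dounce homogenisation of K562 pellets in PBS pH 7.4 with 1 mM MgCl2, crude extract at 1 mg/mL protein was incubated for 30 min with 10 μM compound. Aliquots were then heated for 3 min over 48°C-58°C and pooled, NP-40 was added to 0.5% at 4°C, and soluble protein was recovered as the supernatant at 21,000xg for 90 min. Channel-sum-equalised TMTpro 16plex LC-MS/MS quantified this protein. Each value, from duplicates, is a log-two fold change in thermal stability relative to solvent controls.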
row,Target,log2 fold change
1,NUDT5 (UniProt Q9UKK9),inactive: -0.015
2,NOL12 (UniProt Q9UGY1),inactive: -0.07
3,NUBP1 (UniProt P53384),inactive: 0.01
4,NUMBL (UniProt Q9Y6R0),inactive: 0.247
5,NUDT12 (UniProt Q9BQG2),inactive: 0.014
6,NMNAT1 (UniProt Q9HAN9),inactive: -0.025
7,NT5C2 (UniProt P49902),inactive: -0.041
8,NSRP1 (UniProt Q9H0G5),inactive: 0.013
9,NUDT4 isoform 2 (UniProt Q9NZJ9),inactive: -0.009
10,NSL1 (UniProt Q96IY1),inactive: -0.047
11,NSFL1C isoform 5 (UniProt Q9UNZ2),inactive: -0.004
12,NSUN5 isoform 2 (UniProt Q96P11),inactive: -0.018
13,NRAS (UniProt P01111),inactive: -0.049
14,NOC3L (UniProt Q8WTT2),inactive: -0.004
15,NMD3 (UniProt Q96D46),inactive: 0.008
16,NSMCE4A (UniProt Q9NXX6),inactive: 0.014
17,NUDCD1 (UniProt Q96RS6),inactive: -0.006
18,NOMO2 (UniProt Q5JPE7),inactive: 0.013
19,NOA1 (UniProt Q8NC60),inactive: 0.021
20,NOP53 (UniProt Q9NZM5),inactive: 0.008
21,NOSIP (UniProt Q9Y314),inactive: 0.013
22,NUDCD2 (UniProt Q8WVJ2),inactive: -0.008
23,NSF (UniProt P46459),inactive: 0.008

# Given as tab-separated lines: entries from further up.
row	Target	log2 fold change
8	NSRP1 (UniProt Q9H0G5)	inactive: 0.013
9	NUDT4 isoform 2 (UniProt Q9NZJ9)	inactive: -0.009

# — the supplement of paper PMC10849652
